Some of the results follow.
Compound: Cc1cc(ccc1-c1ccccc1)C(=O)N1CCCN(CC1)C(=O)CCl [compound 10]
Assay: probe-labelled cysteine peptide fold change vs DMSO (competition) (log2 fold change); higher = less target engagement (more negative = stronger competition)
Conditions: 50 µM; THP-1; incubation time: 4 h
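Further: competitive profiling in live THP-1 cells: cysteine peptides tagged with an iodoacetamide desthiobiotin (IA-DTB) probe, intensity after compound treatment relative to DMSO-treated cells.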

Chains of the proteins cited; added tags and fusions are not shown. Lines headed by an entry give the natural chain unless they say otherwise; changes in a name come on top.
UniProt Q9NW13: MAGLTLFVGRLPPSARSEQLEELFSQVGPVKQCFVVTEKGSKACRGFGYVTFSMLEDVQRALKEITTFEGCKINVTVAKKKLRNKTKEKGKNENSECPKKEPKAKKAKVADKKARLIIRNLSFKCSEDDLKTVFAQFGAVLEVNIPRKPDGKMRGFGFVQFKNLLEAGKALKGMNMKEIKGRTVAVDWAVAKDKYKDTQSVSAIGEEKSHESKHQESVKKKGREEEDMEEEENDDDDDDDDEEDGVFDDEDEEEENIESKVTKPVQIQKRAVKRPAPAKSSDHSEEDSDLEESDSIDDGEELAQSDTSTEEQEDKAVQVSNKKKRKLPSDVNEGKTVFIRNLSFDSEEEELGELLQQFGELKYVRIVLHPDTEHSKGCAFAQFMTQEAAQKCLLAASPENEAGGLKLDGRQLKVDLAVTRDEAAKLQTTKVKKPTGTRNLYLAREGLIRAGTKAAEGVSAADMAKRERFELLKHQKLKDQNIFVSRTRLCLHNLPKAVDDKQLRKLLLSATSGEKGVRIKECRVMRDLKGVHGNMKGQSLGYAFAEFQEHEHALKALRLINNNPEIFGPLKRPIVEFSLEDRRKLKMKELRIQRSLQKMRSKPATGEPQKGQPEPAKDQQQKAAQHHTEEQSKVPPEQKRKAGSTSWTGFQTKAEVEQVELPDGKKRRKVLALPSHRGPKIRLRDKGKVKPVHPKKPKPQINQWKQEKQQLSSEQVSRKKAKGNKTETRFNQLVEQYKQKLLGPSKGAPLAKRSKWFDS
UniProt P62877, whole entry, looked up: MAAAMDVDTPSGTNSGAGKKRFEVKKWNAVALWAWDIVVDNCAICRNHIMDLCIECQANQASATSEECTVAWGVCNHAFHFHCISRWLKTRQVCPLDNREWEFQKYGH
UniProt Q06330: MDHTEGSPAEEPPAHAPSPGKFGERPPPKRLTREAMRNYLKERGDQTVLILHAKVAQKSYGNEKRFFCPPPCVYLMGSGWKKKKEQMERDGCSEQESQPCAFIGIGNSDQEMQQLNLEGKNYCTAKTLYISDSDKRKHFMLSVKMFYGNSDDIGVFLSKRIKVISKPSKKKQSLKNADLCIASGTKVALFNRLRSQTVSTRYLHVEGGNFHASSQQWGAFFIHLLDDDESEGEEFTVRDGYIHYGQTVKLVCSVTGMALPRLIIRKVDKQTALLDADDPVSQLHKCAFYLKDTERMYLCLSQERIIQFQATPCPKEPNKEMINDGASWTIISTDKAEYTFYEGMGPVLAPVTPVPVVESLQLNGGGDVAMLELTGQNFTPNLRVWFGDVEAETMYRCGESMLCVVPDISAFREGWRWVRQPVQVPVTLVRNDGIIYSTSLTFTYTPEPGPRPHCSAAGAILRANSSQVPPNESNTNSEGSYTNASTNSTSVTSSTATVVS
UniProt P62834: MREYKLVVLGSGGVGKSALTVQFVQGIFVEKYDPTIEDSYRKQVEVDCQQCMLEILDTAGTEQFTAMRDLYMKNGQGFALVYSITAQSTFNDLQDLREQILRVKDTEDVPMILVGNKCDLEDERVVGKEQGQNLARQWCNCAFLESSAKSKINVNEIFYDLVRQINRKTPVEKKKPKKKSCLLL
UniProt P49792, whole entry, looked up: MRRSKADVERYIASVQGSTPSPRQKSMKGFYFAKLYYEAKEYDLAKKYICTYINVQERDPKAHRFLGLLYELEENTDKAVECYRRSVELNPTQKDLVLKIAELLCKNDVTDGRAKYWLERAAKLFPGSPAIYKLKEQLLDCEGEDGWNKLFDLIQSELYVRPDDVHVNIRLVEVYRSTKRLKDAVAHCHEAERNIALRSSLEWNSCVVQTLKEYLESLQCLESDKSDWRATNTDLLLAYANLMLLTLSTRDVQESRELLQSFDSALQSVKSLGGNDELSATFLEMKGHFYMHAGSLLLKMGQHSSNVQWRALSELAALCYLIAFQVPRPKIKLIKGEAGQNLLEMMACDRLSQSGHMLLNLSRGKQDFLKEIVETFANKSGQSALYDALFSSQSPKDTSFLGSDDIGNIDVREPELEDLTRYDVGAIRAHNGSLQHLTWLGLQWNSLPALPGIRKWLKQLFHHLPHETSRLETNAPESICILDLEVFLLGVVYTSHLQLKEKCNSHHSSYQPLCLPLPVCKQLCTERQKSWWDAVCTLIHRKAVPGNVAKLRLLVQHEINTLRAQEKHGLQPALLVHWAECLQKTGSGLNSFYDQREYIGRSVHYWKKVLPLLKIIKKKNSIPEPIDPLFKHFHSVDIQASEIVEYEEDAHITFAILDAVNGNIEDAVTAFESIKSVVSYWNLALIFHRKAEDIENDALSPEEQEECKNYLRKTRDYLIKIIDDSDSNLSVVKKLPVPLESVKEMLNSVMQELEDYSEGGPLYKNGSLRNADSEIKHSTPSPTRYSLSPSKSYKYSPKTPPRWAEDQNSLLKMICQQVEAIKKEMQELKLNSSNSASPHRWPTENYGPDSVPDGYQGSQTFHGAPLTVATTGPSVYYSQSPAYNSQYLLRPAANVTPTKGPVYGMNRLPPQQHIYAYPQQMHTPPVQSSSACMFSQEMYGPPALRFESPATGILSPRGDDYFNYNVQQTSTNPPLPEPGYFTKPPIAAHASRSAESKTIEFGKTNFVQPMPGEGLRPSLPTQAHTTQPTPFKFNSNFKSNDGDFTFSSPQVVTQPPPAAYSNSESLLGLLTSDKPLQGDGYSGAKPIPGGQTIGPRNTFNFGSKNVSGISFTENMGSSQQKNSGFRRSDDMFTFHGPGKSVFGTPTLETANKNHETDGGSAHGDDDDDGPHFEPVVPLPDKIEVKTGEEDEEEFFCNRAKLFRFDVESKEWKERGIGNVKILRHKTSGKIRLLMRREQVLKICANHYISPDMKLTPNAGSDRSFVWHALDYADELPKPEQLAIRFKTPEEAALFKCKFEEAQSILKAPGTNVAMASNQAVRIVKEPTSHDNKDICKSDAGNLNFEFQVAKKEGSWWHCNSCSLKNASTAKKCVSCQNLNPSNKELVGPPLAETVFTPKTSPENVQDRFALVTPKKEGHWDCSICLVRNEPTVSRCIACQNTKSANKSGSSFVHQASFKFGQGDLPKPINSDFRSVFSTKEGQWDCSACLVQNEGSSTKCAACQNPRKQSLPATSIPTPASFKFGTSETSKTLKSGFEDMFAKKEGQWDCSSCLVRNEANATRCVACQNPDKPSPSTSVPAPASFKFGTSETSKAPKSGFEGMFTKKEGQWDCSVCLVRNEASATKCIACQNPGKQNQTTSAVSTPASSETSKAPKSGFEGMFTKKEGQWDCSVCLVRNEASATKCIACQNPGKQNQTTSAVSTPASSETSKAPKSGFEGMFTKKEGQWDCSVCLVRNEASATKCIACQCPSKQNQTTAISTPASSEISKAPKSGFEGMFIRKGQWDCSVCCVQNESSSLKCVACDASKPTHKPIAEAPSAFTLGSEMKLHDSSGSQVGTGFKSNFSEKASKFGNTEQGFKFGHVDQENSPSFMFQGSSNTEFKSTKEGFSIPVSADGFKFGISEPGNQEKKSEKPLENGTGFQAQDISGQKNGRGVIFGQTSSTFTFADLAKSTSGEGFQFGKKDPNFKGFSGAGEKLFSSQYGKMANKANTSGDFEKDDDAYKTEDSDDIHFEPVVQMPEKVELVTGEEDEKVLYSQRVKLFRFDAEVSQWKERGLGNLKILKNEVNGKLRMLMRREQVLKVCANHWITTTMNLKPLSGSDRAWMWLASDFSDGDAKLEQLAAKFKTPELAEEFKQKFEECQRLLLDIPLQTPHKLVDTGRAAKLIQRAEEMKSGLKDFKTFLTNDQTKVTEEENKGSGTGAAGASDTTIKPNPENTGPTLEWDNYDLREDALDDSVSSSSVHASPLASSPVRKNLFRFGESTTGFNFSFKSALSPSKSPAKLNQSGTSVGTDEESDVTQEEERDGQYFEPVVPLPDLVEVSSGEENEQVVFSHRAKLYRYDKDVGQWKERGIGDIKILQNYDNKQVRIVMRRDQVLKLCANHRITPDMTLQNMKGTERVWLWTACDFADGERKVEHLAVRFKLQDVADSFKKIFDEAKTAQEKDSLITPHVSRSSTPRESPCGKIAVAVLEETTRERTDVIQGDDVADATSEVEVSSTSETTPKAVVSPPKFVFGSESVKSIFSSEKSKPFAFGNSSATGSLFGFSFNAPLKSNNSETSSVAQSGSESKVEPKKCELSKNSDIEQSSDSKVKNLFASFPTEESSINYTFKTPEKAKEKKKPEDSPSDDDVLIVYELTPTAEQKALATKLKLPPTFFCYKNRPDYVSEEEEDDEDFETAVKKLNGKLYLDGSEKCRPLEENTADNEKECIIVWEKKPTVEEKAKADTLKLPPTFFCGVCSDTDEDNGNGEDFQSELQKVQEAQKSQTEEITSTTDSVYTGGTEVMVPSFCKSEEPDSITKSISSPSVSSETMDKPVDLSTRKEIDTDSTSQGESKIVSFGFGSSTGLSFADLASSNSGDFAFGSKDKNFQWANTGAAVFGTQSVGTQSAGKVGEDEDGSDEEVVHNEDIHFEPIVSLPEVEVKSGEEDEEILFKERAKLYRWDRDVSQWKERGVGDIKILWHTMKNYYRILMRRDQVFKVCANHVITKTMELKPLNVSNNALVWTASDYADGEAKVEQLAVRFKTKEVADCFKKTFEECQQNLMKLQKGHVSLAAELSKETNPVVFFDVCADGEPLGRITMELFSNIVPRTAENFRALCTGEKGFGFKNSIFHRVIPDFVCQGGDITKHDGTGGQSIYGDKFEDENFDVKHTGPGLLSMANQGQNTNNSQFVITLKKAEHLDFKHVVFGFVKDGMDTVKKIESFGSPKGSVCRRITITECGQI
UniProt Q08999: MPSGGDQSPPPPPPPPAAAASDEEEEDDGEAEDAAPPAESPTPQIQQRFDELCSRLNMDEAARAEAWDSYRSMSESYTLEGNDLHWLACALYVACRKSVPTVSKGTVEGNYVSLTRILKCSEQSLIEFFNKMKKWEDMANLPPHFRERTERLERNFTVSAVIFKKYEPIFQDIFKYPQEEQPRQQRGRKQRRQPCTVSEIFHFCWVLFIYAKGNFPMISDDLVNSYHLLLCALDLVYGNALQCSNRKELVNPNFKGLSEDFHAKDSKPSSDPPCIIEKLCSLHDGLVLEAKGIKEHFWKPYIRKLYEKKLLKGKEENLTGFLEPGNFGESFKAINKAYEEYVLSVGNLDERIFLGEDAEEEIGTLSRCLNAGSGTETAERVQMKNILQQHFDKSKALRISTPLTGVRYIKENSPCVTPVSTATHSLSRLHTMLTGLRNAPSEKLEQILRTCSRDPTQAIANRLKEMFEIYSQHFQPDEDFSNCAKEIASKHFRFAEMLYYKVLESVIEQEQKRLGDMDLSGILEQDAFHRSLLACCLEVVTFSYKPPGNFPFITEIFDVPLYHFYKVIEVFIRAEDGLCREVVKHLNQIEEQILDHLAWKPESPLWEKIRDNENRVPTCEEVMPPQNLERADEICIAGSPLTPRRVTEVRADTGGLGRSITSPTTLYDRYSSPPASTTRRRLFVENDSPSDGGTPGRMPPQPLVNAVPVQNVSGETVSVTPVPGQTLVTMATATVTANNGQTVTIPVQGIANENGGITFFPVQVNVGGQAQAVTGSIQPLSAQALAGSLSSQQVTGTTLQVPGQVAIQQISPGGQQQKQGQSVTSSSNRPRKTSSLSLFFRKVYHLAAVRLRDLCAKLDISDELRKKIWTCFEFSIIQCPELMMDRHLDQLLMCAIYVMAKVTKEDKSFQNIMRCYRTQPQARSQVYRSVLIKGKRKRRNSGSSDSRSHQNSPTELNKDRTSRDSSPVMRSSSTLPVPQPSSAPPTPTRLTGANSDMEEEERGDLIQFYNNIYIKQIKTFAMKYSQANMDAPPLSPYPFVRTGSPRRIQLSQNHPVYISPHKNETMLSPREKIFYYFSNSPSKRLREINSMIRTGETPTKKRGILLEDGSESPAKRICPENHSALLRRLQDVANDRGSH
UniProt Q96PK6: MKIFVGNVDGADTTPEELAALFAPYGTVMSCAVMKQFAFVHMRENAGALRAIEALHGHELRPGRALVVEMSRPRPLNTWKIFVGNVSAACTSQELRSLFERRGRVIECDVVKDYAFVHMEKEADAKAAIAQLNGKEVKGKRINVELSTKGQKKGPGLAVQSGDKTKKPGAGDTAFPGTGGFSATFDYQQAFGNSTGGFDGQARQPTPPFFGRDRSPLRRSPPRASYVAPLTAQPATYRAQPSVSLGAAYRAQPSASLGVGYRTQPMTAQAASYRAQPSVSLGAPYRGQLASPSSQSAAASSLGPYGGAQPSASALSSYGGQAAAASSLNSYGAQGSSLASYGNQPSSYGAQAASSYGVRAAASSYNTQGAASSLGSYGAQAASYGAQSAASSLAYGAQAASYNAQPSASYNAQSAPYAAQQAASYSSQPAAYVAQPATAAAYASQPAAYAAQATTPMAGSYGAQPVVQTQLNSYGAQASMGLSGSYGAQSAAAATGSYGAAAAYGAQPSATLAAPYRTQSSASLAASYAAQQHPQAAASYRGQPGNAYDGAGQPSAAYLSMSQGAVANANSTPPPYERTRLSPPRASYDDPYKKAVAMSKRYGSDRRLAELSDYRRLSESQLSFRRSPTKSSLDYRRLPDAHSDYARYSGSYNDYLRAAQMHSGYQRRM

Row | Target | probe-labelled cysteine peptide fold change
1 | RBBP4_Q09028_278_PSHSVDAHTAEVNCLSFNPYSEFILATGSADK (UniProt Q09028) | 0.259
2 | RASGRP2_Q7LDG7_512_MGFVHNFQESNSLRPVACR (UniProt Q7LDG7) | -0.351
3 | RBM28_Q9NW13_392_CLLAASPENEAGGLK (UniProt Q9NW13) | 0.197
4 | RBX1_P62877_94_QVCPLDNREWEFQK (UniProt P62877) | -0.446
5 | RBBP7_Q16576_202_EGYGLSWNSNLSGHLLSASDDHTVCLWDINAGPK (UniProt Q16576) | 0.0275
6 | RASA2_Q15283_354_SPDVQPISASAAYILSEICR (UniProt Q15283) | 0.129
7 | RCL1_Q9Y2P8_13_ATQAHSLSYAGCNFLR (UniProt Q9Y2P8) | 0.434
8 | RAP1GDS1_P52306_117_ALGNICYDSHEGR (UniProt P52306) | -0.405
9 | RBPJ_Q06330_397_CGESMLCVVPDISAFR (UniProt Q06330) | 0.28
10 | RAP1A_P62834_118_DTEDVPMILVGNKCDLEDERVVGK (UniProt P62834) | -0.88
11 | RANBP1_P43487_99_ICANHYITPMMELKPNAGSDR (UniProt P43487) | -0.0316
12 | RDH13_Q8NBN7_30_DYVTGGACPSK (UniProt Q8NBN7) | -0.083
13 | RCHY1_Q96PM5_20_GCEHYDR (UniProt Q96PM5) | -0.102
14 | RANBP2_P49792_581_HGLQPALLVHWAECLQK (UniProt P49792) | 0.224
15 | RBM22_Q9NW64_27_QNWEDADFPILCQTCLGENPYIR (UniProt Q9NW64) | -0.23
16 | RDH14_Q9HBH5_97_QAAECGPEPGVSGVGELIVR (UniProt Q9HBH5) | 0.0241
17 | RAI1_Q7Z5J4_790_GDTHEASACLGFQEEDPPGEK (UniProt Q7Z5J4) | -0.306
18 | RC3H1_Q5TC82_1049_ELSMENQCSLDMK (UniProt Q5TC82) | -0.469
19 | RCC2_Q9P258_305_AQRIEYDCELVPR (UniProt Q9P258) | -0.629
20 | RBL2_Q08999_635_ADEICIAGSPLTPR (UniProt Q08999) | 0.0435
21 | RBM14_Q96PK6_108_VIECDVVK (UniProt Q96PK6) | 0.011
22 | RARS_P54136_293_AYQCVVLLQGK (UniProt P54136) | 0.14
